Experimental data as given in article PMC8629390.
No constants are given. Whether binding was seen depends on the method and setting. In cells and extracts the contact can be indirect. A yes stands for co-enrichment or nearness to the bait. Other partners may have been found. For part of these data: A no says only that the protein was not detected with the bait.

Chains of the proteins cited; added tags and fusions are not shown.
UniProt Q8IV32: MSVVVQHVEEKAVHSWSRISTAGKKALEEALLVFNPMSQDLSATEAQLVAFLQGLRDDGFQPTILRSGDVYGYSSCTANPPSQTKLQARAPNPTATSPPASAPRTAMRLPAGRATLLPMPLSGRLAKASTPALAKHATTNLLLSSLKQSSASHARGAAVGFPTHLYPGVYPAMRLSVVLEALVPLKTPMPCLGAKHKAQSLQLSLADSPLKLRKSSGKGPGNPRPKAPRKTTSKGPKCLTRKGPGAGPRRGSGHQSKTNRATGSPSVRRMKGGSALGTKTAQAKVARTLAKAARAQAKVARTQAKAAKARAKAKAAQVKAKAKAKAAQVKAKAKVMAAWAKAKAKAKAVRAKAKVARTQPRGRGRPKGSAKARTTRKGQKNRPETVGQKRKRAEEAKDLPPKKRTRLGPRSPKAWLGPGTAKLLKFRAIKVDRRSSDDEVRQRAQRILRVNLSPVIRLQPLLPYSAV
UniProt P46100: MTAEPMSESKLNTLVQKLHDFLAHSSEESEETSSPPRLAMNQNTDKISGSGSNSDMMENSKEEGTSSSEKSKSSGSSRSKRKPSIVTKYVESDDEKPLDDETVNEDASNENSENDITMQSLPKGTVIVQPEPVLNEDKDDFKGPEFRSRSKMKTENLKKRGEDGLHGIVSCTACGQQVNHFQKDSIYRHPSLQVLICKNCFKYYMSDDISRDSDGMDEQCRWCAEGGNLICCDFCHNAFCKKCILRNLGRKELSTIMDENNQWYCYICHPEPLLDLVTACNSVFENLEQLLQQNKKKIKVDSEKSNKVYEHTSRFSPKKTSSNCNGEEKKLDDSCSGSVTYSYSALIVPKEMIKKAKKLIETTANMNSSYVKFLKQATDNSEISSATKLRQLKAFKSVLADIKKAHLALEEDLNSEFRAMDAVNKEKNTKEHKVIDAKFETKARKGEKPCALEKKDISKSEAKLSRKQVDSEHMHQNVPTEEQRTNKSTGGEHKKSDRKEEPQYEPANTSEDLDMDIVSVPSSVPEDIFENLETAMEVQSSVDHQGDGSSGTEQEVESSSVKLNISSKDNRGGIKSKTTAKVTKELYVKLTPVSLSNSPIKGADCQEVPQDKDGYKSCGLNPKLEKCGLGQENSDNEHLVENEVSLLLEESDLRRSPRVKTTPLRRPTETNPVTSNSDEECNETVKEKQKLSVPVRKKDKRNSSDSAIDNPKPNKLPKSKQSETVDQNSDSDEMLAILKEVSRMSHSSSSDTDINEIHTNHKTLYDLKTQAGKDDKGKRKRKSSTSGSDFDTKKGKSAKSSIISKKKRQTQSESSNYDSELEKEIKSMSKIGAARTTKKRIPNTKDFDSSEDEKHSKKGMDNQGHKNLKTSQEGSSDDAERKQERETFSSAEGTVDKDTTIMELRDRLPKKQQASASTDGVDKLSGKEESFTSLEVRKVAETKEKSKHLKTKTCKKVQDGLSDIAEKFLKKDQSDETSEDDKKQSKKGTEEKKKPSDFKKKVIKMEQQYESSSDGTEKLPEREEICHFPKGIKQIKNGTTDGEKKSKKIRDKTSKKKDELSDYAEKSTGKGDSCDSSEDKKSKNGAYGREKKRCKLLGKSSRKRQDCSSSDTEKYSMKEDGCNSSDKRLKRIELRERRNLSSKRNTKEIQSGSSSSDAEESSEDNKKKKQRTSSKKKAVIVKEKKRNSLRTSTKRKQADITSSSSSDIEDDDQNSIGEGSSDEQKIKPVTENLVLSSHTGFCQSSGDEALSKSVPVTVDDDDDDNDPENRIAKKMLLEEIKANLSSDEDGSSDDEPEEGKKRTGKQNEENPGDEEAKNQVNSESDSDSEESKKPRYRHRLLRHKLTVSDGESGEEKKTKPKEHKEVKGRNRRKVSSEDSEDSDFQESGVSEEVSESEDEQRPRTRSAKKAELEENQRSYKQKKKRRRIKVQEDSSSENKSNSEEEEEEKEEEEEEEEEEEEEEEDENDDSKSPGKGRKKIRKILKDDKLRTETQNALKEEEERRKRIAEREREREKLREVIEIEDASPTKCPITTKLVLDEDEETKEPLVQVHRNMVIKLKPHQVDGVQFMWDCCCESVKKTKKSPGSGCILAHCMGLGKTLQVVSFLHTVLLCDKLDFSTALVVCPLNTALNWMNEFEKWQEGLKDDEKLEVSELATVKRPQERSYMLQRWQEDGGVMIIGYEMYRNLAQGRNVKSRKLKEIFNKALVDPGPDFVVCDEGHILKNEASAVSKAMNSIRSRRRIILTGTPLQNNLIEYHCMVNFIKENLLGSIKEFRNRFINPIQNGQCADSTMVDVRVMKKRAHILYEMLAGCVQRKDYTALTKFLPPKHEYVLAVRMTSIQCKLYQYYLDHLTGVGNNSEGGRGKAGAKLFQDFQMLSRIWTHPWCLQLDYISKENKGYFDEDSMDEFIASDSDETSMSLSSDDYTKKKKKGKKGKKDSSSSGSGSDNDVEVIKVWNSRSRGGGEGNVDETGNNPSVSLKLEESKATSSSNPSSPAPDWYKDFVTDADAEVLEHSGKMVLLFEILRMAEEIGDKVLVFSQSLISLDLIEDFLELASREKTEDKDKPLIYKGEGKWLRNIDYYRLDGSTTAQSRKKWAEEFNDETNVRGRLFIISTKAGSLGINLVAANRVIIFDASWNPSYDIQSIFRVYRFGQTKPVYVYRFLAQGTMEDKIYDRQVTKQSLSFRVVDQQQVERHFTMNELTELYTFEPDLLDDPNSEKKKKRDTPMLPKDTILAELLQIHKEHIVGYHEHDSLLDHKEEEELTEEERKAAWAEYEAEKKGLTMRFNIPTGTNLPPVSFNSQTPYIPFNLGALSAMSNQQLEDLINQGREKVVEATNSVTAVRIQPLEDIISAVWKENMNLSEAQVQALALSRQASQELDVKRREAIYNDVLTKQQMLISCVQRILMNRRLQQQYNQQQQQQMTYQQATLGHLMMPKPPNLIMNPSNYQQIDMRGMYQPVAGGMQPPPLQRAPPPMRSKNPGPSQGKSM
UniProt Q13185: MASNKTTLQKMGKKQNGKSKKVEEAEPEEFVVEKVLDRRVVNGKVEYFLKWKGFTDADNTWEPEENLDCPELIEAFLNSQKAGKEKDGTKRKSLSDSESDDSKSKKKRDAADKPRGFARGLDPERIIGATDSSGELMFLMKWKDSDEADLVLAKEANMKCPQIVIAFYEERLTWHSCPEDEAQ
UniProt O60934: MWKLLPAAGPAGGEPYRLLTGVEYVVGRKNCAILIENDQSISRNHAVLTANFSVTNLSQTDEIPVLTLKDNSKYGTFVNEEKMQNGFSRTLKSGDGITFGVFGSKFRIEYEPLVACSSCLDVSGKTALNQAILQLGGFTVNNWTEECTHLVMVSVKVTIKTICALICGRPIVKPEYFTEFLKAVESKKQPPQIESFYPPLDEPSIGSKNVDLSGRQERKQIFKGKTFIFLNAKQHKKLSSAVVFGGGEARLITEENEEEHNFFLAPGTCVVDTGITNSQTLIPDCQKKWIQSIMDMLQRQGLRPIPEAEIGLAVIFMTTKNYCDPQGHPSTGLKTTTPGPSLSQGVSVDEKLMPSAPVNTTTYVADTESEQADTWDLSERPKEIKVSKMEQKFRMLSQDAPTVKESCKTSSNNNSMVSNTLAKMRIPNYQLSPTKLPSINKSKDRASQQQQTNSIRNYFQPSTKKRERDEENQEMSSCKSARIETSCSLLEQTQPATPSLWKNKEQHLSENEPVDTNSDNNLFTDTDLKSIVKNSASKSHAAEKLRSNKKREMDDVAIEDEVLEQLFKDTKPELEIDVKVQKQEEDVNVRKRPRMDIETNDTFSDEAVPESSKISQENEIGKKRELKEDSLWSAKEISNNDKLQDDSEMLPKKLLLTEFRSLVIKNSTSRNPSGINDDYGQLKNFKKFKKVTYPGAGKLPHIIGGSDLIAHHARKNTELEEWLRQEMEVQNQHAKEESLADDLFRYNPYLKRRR
UniProt P29590: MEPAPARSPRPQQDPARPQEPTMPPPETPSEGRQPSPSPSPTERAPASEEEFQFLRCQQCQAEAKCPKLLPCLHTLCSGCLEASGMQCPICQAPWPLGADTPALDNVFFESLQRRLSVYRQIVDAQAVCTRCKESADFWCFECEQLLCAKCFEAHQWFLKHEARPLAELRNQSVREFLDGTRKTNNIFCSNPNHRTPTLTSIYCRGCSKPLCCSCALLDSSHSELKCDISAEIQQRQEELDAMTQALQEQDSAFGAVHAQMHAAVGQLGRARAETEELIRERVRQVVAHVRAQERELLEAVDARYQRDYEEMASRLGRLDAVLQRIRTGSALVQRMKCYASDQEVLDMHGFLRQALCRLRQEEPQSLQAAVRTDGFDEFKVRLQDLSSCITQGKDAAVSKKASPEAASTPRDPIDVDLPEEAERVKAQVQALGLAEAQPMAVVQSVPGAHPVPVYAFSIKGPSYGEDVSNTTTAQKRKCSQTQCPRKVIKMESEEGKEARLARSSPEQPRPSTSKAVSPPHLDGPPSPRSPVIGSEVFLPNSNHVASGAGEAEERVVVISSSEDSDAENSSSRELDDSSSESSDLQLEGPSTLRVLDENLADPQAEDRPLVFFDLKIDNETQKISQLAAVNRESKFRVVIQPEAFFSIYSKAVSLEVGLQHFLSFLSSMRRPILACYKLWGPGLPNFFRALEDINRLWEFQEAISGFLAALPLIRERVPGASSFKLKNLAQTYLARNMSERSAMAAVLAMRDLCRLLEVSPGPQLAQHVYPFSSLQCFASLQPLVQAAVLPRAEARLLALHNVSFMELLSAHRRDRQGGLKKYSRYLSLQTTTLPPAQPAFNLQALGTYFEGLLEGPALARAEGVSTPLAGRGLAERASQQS
UniProt Q08945: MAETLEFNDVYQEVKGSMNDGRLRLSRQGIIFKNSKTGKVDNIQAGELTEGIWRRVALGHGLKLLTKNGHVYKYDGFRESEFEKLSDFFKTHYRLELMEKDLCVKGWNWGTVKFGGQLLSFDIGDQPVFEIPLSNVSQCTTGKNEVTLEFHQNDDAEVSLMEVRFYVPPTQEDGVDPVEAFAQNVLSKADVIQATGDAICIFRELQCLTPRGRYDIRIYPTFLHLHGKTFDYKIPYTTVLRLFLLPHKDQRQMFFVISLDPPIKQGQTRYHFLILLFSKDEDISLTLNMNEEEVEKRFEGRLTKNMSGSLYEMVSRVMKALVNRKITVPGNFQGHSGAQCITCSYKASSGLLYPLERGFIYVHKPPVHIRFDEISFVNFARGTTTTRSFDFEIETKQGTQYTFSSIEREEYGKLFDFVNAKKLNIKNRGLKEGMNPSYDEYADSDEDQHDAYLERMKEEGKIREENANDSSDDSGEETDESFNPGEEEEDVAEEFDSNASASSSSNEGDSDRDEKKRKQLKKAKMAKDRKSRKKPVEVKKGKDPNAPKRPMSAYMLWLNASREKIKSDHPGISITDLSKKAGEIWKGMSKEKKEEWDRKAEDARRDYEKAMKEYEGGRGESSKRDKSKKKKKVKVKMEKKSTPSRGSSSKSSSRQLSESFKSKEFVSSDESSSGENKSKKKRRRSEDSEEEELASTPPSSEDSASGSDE
UniProt Q9Y5B9: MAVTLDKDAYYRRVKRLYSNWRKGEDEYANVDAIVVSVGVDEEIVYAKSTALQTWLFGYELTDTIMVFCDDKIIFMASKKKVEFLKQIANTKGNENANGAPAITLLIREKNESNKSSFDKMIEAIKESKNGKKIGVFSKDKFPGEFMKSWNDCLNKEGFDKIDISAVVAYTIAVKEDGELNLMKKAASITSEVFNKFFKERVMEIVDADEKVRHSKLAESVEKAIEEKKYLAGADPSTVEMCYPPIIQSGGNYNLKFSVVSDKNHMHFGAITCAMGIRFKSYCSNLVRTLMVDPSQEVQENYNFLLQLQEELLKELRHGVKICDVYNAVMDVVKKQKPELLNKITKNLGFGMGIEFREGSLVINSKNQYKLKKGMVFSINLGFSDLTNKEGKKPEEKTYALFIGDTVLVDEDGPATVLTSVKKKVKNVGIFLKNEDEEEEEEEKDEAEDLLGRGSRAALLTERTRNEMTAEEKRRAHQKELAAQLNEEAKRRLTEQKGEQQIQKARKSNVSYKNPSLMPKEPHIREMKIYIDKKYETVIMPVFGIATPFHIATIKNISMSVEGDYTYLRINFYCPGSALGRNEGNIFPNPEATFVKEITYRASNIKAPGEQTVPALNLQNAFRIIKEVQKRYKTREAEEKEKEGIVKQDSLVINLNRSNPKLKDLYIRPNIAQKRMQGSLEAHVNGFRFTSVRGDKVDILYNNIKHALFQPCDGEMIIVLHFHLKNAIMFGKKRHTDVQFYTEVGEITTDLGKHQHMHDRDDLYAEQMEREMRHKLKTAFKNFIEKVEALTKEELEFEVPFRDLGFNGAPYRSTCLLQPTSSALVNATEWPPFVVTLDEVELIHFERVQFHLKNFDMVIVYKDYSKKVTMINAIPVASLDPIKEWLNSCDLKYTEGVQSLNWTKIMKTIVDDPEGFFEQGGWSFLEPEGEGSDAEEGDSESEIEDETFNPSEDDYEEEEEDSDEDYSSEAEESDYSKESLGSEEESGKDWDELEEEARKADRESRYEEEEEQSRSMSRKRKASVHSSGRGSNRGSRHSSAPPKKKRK

T1: FAM207A-BirA* (BioID bait) (UniProt Q9NSI2)
T1 sequence: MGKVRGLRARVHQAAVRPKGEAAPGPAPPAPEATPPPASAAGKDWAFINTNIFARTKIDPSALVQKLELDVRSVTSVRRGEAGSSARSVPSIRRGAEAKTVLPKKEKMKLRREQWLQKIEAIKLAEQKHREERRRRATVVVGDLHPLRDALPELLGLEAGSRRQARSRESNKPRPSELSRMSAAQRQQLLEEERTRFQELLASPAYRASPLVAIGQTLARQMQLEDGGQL

B1: SLF2 (SMC5/6 localization factor 2), endogenous (protein, UniProt Q8IX21 1-1173)
chain: MTRRCMPARPGFPSSPAPGSSPPRCHLRPGSTAHAAAGKRTESPGDRKQSIIDFFKPASKQDRHMLDSPQKSNIKYGGSRLSITGTEQFERKLSSPKESKPKRVPPEKSPIIEAFMKGVKEHHEDHGIHESRRPCLSLASKYLAKGTNIYVPSSYHLPKEMKSLKKKHRSPERRKSLFIHENNEKNDRDRGKTNADSKKQTTVAEADIFNNSSRSLSSRSSLSRHHPEESPLGAKFQLSLASYCRERELKRLRKEQMEQRINSENSFSEASSLSLKSSIERKYKPRQEQRKQNDIIPGKNNLSNVENGHLSRKRSSSDSWEPTSAGSKQNKFPEKRKRNSVDSDLKSTRESMIPKARESFLEKRPDGPHQKEKFIKHIALKTPGDVLRLEDISKEPSDETDGSSAGLAPSNSGNSGHHSTRNSDQIQVAGTKETKMQKPHLPLSQEKSAIKKASNLQKNKTASSTTKEKETKLPLLSRVPSAGSSLVPLNAKNCALPVSKKDKERSSSKECSGHSTESTKHKEHKAKTNKADSNVSSGKISGGPLRSEYGTPTKSPPAALEVVPCIPSPAAPSDKAPSEGESSGNSNAGSSALKRKLRGDFDSDEESLGYNLDSDEEEETLKSLEEIMALNFNQTPAATGKPPALSKGLRSQSSDYTGHVHPGTYTNTLERLVKEMEDTQRLDELQKQLQEDIRQGRGIKSPIRIGEEDSTDDEDGLLEEHKEFLKKFSVTIDAIPDHHPGEEIFNFLNSGKIFNQYTLDLRDSGFIGQSAVEKLILKSGKTDQIFLTTQGFLTSAYHYVQCPVPVLKWLFRMMSVHTDCIVSVQILSTLMEITIRNDTFSDSPVWPWIPSLSDVAAVFFNMGIDFRSLFPLENLQPDFNEDYLVSETQTTSRGKESEDSSYKPIFSTLPETNILNVVKFLGLCTSIHPEGYQDREIMLLILMLFKMSLEKQLKQIPLVDFQSLLINLMKNIRDWNTKVPELCLGINELSSHPHNLLWLVQLVPNWTSRGRQLRQCLSLVIISKLLDEKHEDVPNASNLQVSVLHRYLVQMKPSDLLKKMVLKKKAEQPDGIIDDSLHLELEKQAYYLTYILLHLVGEVSCSHSFSSGQRKHFVLLCGALEKHVKCDIREDARLFYRTKVKDLVARIHGKWQEIIQNCRPTQGQLHDFWVPDS
B2: ZBTB4 (protein, UniProt Q9P1Z0 1-1013)
chain: MPPPAEVTDPSHAPAVLRQLNEQRLRGLFCDVTLIAGDTKFPAHRSVLAASSPFFREALLTSAPLPLPPATGGAAPNPATTTAASSSSSSSSSSSSSSSSASSSSSSSSSSPPPASPPASSPPRVLELPGVPAAAFSDVLNFIYSARLALPGGGGDGAAVAEIGALGRRLGISRLQGLGEGGDAWVPPTPAPMATSQPEEDSFGPGPRPAGEWEGDRAEAQAPDLQCSLPRRPLPCPQCGKSFIHPKRLQTHEAQCRRGASTRGSTGLGAGGAGPGGPAGVDASALPPPVGFRGGPEHVVKVVGGHVLYVCAACERSYVTLSSLKRHSNVHSWRRKYPCRYCEKVFALAEYRTKHEVWHTGERRYQCIFCWETFVTYYNLKTHQRAFHGISPGLLASEKTPNGGYKPKLNTLKLYRLLPMRAAKRPYKTYSQGAPEAPLSPTLNTPAPVAMPASPPPGPPPAPEPGPPPSVITFAHPAPSVIVHGGSSSGGGGSGTASTGGSQAASVITYTAPPRPPKKREYPPPPPEPAATPTSPATAVSPATAAGPAMATTTEEAKGRNPRAGRTLTYTAKPVGGIGGGGGPPTGAGRGPSQLQAPPPLCQITVRIGEEAIVKRRISETDLRPGELSGEEMEESEEDEEEEDEEEEEEDEEESKAGGEDQLWRPYYSYKPKRKAGAAGGASVGGSGLPRGRRPPRWRQKLERRSWEETPAAESPAGRARTERRHRCGDCAQTFTTLRKLRKHQEAHGGGSHSSRAGRRPSTRFTCPHCAKVCKTAAALSRHGQRHAAERPGGTPTPVIAYSKGSAGTRPGDVKEEAPQEMQVSSSSGEAGGGSTAAEEASETASLQDPIISGGEEPPVVASGGSYVYPPVQEFPLALIGGGREPGGGRGKSGSEGPVGAGEGDRMEGIGAAKVTFYPEPYPLVYGPQLLAAYPYNFSNLAALPVALNMVLPDEKGAGALPFLPGVFGYAVNPQAAPPAPPTPPPPTLPPPIPPKGEGERAGVERTQKGDVG
B3: IMP3 U3 snoRNP protein (protein, UniProt Q9NV31 1-184)
chain: MVRKLKFHEQKLLKQVDFLNWEVTDHNLHELRVLRRYRLQRREDYTRYNQLSRAVRELARRLRDLPERDQFRVRASAALLDKLYALGLVPTRGSLELCDFVTASSFCRRRLPTVLLKLRMAQHLQAAVAFVEQGHVRVGPDVVTDPAFLVTRSMEDFVTWVDSSKIKRHVLEYNEERDDFDLEA
B4: FAM207A (endogenous) (protein, UniProt Q9NSI2 1-230)
chain: T1 sequence
B5: MRE11 subunit of the MRN complex, P49959 1-708 (protein)
chain: MSTADALDDENTFKILVATDIHLGFMEKDAVRGNDTFVTLDEILRLAQENEVDFILLGGDLFHENKPSRKTLHTCLELLRKYCMGDRPVQFEILSDQSVNFGFSKFPWVNYQDGNLNISIPVFSIHGNHDDPTGADALCALDILSCAGFVNHFGRSMSVEKIDISPVLLQKGSTKIALYGLGSIPDERLYRMFVNKKVTMLRPKEDENSWFNLFVIHQNRSKHGSTNFIPEQFLDDFIDLVIWGHEHECKIAPTKNEQQLFYISQPGSSVVTSLSPGEAVKKHVGLLRIKGRKMNMHKIPLHTVRQFFMEDIVLANHPDIFNPDNPKVTQAIQSFCLEKIEEMLENAERERLGNSHQPEKPLVRLRVDYSGGFEPFSVLRFSQKFVDRVANPKDIIHFFRHREQKEKTGEEINFGKLITKPSEGTTLRVEDLVKQYFQTAEKNVQLSLLTERGMGEAVQEFVDKEEKDAIEELVKYQLEKTQRFLKERHIDALEDKIDEEVRRFRETRQKNTNEEDDEVREAMTRARALRSQSEESASAFSADDLMSIDLAEQMANDSDDSISAATNKGRGRGRGRRGGRGQNSASRGGSQRGRADTGLETSTRSRNSKTAVSASRNMSIIDAFKSTRQQPSRNVTTKNYSEVIEVDESDVEEDIFPTTSKTDQRWSSTSSSKIMSQSQVSKGVDFESSEDDDDDPFMNTSSLRRNRR
B6: RAD50 subunit of the MRN complex, Q92878 1-1312 (protein)
chain: MSRIEKMSILGVRSFGIEDKDKQIITFFSPLTILVGPNGAGKTTIIECLKYICTGDFPPGTKGNTFVHDPKVAQETDVRAQIRLQFRDVNGELIAVQRSMVCTQKSKKTEFKTLEGVITRTKHGEKVSLSSKCAEIDREMISSLGVSKAVLNNVIFCHQEDSNWPLSEGKALKQKFDEIFSATRYIKALETLRQVRQTQGQKVKEYQMELKYLKQYKEKACEIRDQITSKEAQLTSSKEIVKSYENELDPLKNRLKEIEHNLSKIMKLDNEIKALDSRKKQMEKDNSELEEKMEKVFQGTDEQLNDLYHNHQRTVREKERKLVDCHRELEKLNKESRLLNQEKSELLVEQGRLQLQADRHQEHIRARDSLIQSLATQLELDGFERGPFSERQIKNFHKLVRERQEGEAKTANQLMNDFAEKETLKQKQIDEIRDKKTGLGRIIELKSEILSKKQNELKNVKYELQQLEGSSDRILELDQELIKAERELSKAEKNSNVETLKMEVISLQNEKADLDRTLRKLDQEMEQLNHHTTTRTQMEMLTKDKADKDEQIRKIKSRHSDELTSLLGYFPNKKQLEDWLHSKSKEINQTRDRLAKLNKELASSEQNKNHINNELKRKEEQLSSYEDKLFDVCGSQDFESDLDRLKEEIEKSSKQRAMLAGATAVYSQFITQLTDENQSCCPVCQRVFQTEAELQEVISDLQSKLRLAPDKLKSTESELKKKEKRRDEMLGLVPMRQSIIDLKEKEIPELRNKLQNVNRDIQRLKNDIEEQETLLGTIMPEEESAKVCLTDVTIMERFQMELKDVERKIAQQAAKLQGIDLDRTVQQVNQEKQEKQHKLDTVSSKIELNRKLIQDQQEQIQHLKSTTNELKSEKLQISTNLQRRQQLEEQTVELSTEVQSLYREIKDAKEQVSPLETTLEKFQQEKEELINKKNTSNKIAQDKLNDIKEKVKNIHGYMKDIENYIQDGKDDYKKQKETELNKVIAQLSECEKHKEKINEDMRLMRQDIDTQKIQERWLQDNLTLRKRNEELKEVEEERKQHLKEMGQMQVLQMKSEHQKLEENIDNIKRNHNLALGRQKGYEEEIIHFKKELREPQFRDAEEKYREMMIVMRTTELVNKDLDIYYKTLDQAIMKFHSMKMEEINKIIRDLWRSTYRGQDIEYIEIRSDADENVSASDKRRNYNYRVVMLKGDTALDMRGRCSAGQKVLASLIIRLALAETFCLNCGIIALDEPTTNLDRENIESLAHALVEIIKSRSQQRNFQLLVITHDEDFVELLGRSEYVEKFYRIKKNIDQCSEIVKCSVSSLGFNVH

Legend:
[1] = molecular target: CCDC71-BirA* (BioID bait) (UniProt Q8IV32); experiment: proximity labelling; BioID with CCDC71-BirA* in HEK293 Flp-In T-REx cells; streptavidin capture and mass spectrometry; SAINT, BFDR ≤ 5% over negative controls; biological duplicates
[2] = molecular target: ATRX fused to a FLAG-tagged BirA* biotin ligase (BioID bait) (UniProt P46100); experiment: proximity labelling; BioID with ATRX fused to FLAG-BirA* at the N- or C-terminus in tetracycline-inducible HEK293 Flp-In T-REx cells; 50 uM biotin for the last 8 hr; streptavidin capture and mass spectrometry; SAINT, BFDR ≤ 5% against untransfected cells and BirA* alone, further filtered against NLS-BirA*; biological duplicates
[3] = molecular target: T1, FAM207A-BirA* (BioID bait); experiment: proximity labelling; BioID with FAM207A-BirA* in HEK293 Flp-In T-REx cells; streptavidin capture and mass spectrometry; SAINT against BirA* and NLS-BirA* controls; biological duplicates
[4] = molecular target: ATRX fused to a FLAG-tagged BirA* biotin ligase (BioID bait), P46100; experiment: proximity labelling; BioID with ATRX fused to FLAG-BirA* at the N- or C-terminus in tetracycline-inducible HEK293 Flp-In T-REx cells; 50 uM biotin for the last 8 hr; streptavidin capture and mass spectrometry; SAINT, BFDR ≤ 5% against untransfected cells and BirA* alone, further filtered against NLS-BirA*; biological duplicates; conditions: remark: other sources report otherwise

Molecule | binding [2] | also measured
ATRX (endogenous) (from UniProt P46100 1-2492) |  | binding [1]: binds
BLM helicase (from UniProt P54132 1-1417) | binds | 
CCDC71 (endogenous) (from UniProt Q8IV32 1-467) | binds | 
HDAC1 histone deacetylase (from UniProt Q13547 1-482) |  | binding [1]: binds
HP1β (CBX1) (from UniProt P83916 1-185) | no binding | 
HP1γ (CBX3) (from UniProt Q13185 1-183) | no binding | 
NBS1 component of the MRN complex (from UniProt O60934 1-754) | binds | 
PML protein (from UniProt P29590 1-882) | binds | 
SSRP1 subunit of the FACT histone chaperone (from UniProt Q08945 1-709) | binds | 
SUPT16H subunit of the FACT histone chaperone (from UniProt Q9Y5B9 1-1047) | binds | 
ZFHX4 transcription factor (from UniProt Q86UP3 1-3567) | binds | 
B1 | binds | 
B2 | binds | 
B3 | binds | binding [3]: no binding
B4 | binds | 
B5 |  | binding [4]: no binding
B6 |  | binding [4]: no binding
